Results are given in words; binding and its absence hold for the method and conditions named. Binding seen in cells or lysates may run through a third protein. Some binding calls cover weakened binding; strength is not graded here. Where a sequence is shown, tags or fusion partners need not be part of it.
T1: Flag-RAB33A (UniProt Q14088)
T1 sequence: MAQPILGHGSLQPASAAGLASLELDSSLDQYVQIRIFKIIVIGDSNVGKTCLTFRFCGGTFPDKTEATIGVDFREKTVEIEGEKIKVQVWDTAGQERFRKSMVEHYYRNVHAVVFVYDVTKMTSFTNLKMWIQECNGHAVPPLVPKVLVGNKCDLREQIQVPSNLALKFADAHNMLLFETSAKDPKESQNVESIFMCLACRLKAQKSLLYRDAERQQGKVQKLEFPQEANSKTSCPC

B1: V5-TBC1D2A (protein, UniProt Q9BYX2 1-928)
chain: MEGAGENAPESSSSAPGSEESARDPQVPPPEEESGDCARSLEAVPKKLCGYLSKFGGKGPIRGWKSRWFFYDERKCQLYYSRTAQDANPLDSIDLSSAVFDCKADAEEGIFEIKTPSRVITLKAATKQAMLYWLQQLQMKRWEFHNSPPAPPATPDAALAGNGPVLHLELGQEEAELEEFLCPVKTPPGLVGVAAALQPFPALQNISLKHLGTEIQNTMHNIRGNKQAQGTGHEPPGEDSPQSGEPQREEQPLASDASTPGREPEDSPKPAPKPSLTISFAQKAKRQNNTFPFFSEGITRNRTAQEKVAALEQQVLMLTKELKSQKELVKILHKALEAAQQEKRASSAYLAAAEDKDRLELVRHKVRQIAELGRRVEALEQERESLAHTASLREQQVQELQQHVQLLMDKNHAKQQVICKLSEKVTQDFTHPPDQSPLRPDAANRDFLSQQGKIEHLKDDMEAYRTQNCFLNSEIHQVTKIWRKVAEKEKALLTKCAYLQARNCQVESKYLAGLRRLQEALGDEASECSELLRQLVQEALQWEAGEASSDSIELSPISKYDEYGFLTVPDYEVEDLKLLAKIQALESRSHHLLGLEAVDRPLRERWAALGDLVPSAELKQLLRAGVPREHRPRVWRWLVHLRVQHLHTPGCYQELLSRGQAREHPAARQIELDLNRTFPNNKHFTCPTSSFPDKLRRVLLAFSWQNPTIGYCQGLNRLAAIALLVLEEEESAFWCLVAIVETIMPADYYCNTLTASQVDQRVLQDLLSEKLPRLMAHLGQHHVDLSLVTFNWFLVVFADSLISNILLRVWDAFLYEGTKVVFRYALAIFKYNEKEILRLQNGLEIYQYLRFFTKTISNSRKLMNIAFNDMNPFRMKQLRQLRMVHRERLEAELRELEQLKAEYLERRASRRRAVSEGCASEDEVEGEA
B2: V5-TBC1D2A^∆CC (protein, UniProt Q9BYX2)
chain: MEGAGENAPESSSSAPGSEESARDPQVPPPEEESGDCARSLEAVPKKLCGYLSKFGGKGPIRGWKSRWFFYDERKCQLYYSRTAQDANPLDSIDLSSAVFDCKADAEEGIFEIKTPSRVITLKAATKQAMLYWLQQLQMKRWEFHNSPPAPPATPDAALAGNGPVLHLELGQEEAELEEFLCPVKTPPGLVGVAAALQPFPALQNISLKHLGTEIQNTMHNIRGNKQAQGTGHEPPGEDSPQSGEPQREEQPLASDASTPGREPEDSPKPAPKPSLTISFAQKAKRQNNTFPFFSEGIQVICKLSEKVTQDFTHPPDQSPLRPDAANRDFLSQQGKIEHLKDDMEAYRTQNCFLNSEIHQVTKIWRKVAEKEKALLTKCAYLQARNCQVESKYLAGLRRLQEALGDEASECSELLRQLVQEALQWEAGEASSDSIELSPISKYDEYGFLTVPDYEVEDLKLLAKIQALESRSHHLLGLEAVDRPLRERWAALGDLVPSAELKQLLRAGVPREHRPRVWRWLVHLRVQHLHTPGCYQELLSRGQAREHPAARQIELDLNRTFPNNKHFTCPTSSFPDKLRRVLLAFSWQNPTIGYCQGLNRLAAIALLVLEEEESAFWCLVAIVETIMPADYYCNTLTASQVDQRVLQDLLSEKLPRLMAHLGQHHVDLSLVTFNWFLVVFADSLISNILLRVWDAFLYEGTKVVFRYALAIFKYNEKEILRLQNGLEIYQYLRFFTKTISNSRKLMNIAFNDMNPFRMKQLRQLRMVHRERLEAELRELEQLKAEYLERRASRRRAVSEGCASEDEVEGEA

Target: T1, Flag-RAB33A
Test: co-IP; lysates (RIPA buffer: 150 mM NaCl, 0.5% EDTA, 50 mM Tris-HCl, 0.5% NP40) of cotransfected HEK293T cells incubated with anti-Flag agarose beads for 1.5 h at 4 °C, six washes with RIPA buffer, western blotting

| Binder | binding |
| --- | --- |
| B1 | binds |
| B2 | no binding |

Reference: publication PMC11861591
